Measurements reported in the supplement of paper PMC12823440, “Inhibitors supercharge kinase turnover through native proteolytic circuits” (Nature, 2025).
The other results are listed elsewhere or left out. The calls rarely recur for the same compound in another form.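 Kinases, fused to nanoluciferase, were expressed in K562 cells; luminescence was measured every 4 h from 2 to 18 h as percent of control (DMSO = 100%, positive control = 0%). A time point is decreased if signal falls significantly (2 sigma). Hits were called by the authors by a rule that is not shown; the count of time points alone does not decide it.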

Sequences of proteins named here, by UniProt entry; tags and fusion partners are left off. A change or cut given only in a name is not applied to a line headed by its entry.
UniProt O75460: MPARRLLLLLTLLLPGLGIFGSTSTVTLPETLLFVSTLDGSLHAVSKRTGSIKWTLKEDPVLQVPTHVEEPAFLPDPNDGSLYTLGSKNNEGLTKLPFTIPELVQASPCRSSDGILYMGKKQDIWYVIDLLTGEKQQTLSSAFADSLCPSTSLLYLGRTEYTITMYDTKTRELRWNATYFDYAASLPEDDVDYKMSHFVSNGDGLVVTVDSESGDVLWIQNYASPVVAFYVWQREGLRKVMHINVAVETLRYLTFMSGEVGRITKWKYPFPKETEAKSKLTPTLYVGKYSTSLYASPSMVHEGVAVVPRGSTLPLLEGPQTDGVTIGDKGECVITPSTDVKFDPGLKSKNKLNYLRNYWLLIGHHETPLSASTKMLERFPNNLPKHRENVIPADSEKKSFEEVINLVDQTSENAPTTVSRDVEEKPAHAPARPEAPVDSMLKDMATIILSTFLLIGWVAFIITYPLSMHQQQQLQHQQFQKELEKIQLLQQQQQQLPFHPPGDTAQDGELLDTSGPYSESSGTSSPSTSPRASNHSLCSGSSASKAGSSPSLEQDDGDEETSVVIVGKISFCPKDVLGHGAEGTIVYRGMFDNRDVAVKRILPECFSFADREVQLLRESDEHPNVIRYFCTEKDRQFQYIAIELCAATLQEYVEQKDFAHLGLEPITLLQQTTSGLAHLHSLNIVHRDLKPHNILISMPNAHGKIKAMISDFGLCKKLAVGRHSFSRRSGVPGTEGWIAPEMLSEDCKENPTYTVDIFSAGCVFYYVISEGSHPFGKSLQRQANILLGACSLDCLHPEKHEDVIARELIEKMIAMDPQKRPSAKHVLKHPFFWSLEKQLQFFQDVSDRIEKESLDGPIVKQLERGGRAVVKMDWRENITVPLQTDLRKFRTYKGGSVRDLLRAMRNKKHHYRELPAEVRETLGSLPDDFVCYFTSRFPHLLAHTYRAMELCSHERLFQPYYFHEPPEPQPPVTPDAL
UniProt P22607, whole entry, looked up: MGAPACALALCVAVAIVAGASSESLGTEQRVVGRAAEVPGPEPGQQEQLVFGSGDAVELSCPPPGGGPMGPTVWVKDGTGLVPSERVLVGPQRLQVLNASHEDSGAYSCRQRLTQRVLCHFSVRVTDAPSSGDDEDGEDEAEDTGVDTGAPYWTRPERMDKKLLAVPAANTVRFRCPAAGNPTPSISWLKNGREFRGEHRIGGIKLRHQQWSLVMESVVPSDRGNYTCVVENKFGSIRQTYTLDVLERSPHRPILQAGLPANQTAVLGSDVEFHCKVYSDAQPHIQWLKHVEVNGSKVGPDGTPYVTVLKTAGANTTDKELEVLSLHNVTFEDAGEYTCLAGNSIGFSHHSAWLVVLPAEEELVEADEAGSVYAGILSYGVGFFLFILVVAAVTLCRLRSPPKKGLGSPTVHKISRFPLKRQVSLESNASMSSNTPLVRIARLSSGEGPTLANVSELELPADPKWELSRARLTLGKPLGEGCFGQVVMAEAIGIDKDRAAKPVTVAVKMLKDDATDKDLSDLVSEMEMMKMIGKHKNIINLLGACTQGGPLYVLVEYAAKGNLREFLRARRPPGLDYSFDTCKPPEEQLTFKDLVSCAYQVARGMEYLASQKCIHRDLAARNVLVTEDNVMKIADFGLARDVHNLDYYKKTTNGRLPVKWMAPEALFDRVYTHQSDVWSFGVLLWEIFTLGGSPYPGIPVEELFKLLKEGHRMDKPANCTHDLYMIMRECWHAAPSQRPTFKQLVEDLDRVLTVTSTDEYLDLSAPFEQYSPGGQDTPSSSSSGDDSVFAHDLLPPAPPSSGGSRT
UniProt P36888, whole entry: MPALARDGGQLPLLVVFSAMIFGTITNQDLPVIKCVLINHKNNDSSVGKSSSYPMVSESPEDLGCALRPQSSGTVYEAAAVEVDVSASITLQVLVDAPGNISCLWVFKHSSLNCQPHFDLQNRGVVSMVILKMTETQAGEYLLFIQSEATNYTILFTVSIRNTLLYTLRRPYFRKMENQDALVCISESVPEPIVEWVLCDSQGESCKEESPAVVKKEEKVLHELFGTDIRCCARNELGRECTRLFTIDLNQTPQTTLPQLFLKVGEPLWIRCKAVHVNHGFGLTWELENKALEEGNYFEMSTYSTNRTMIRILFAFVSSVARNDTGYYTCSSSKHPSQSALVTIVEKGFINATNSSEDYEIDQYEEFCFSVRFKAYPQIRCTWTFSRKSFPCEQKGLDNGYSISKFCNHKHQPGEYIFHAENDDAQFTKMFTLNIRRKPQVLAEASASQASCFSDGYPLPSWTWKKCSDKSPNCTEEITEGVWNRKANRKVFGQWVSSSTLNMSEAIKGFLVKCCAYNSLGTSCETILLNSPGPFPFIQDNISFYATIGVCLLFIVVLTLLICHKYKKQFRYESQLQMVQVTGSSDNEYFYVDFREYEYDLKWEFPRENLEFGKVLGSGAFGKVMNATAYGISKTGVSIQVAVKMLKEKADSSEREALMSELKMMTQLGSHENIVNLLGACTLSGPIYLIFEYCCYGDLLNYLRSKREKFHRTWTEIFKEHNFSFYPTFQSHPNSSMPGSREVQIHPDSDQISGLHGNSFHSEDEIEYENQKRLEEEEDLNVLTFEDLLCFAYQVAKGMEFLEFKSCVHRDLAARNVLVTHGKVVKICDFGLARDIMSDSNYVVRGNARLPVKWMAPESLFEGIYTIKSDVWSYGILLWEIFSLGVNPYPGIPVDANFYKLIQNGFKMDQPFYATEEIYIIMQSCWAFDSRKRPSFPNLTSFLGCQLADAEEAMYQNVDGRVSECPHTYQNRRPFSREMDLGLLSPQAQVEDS
UniProt P49840: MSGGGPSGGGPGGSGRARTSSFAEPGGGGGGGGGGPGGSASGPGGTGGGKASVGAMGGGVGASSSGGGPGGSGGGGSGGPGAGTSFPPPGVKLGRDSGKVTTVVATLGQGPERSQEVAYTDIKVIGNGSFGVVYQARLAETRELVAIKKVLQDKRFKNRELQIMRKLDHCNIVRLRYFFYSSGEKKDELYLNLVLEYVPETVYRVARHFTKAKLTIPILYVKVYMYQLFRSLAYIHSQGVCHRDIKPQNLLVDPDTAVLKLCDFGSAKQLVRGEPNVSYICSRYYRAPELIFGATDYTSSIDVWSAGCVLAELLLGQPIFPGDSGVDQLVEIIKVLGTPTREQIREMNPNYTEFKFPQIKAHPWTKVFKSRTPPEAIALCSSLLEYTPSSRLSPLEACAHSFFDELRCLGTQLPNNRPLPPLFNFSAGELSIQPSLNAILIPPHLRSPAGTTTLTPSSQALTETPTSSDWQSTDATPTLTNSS
UniProt P23458: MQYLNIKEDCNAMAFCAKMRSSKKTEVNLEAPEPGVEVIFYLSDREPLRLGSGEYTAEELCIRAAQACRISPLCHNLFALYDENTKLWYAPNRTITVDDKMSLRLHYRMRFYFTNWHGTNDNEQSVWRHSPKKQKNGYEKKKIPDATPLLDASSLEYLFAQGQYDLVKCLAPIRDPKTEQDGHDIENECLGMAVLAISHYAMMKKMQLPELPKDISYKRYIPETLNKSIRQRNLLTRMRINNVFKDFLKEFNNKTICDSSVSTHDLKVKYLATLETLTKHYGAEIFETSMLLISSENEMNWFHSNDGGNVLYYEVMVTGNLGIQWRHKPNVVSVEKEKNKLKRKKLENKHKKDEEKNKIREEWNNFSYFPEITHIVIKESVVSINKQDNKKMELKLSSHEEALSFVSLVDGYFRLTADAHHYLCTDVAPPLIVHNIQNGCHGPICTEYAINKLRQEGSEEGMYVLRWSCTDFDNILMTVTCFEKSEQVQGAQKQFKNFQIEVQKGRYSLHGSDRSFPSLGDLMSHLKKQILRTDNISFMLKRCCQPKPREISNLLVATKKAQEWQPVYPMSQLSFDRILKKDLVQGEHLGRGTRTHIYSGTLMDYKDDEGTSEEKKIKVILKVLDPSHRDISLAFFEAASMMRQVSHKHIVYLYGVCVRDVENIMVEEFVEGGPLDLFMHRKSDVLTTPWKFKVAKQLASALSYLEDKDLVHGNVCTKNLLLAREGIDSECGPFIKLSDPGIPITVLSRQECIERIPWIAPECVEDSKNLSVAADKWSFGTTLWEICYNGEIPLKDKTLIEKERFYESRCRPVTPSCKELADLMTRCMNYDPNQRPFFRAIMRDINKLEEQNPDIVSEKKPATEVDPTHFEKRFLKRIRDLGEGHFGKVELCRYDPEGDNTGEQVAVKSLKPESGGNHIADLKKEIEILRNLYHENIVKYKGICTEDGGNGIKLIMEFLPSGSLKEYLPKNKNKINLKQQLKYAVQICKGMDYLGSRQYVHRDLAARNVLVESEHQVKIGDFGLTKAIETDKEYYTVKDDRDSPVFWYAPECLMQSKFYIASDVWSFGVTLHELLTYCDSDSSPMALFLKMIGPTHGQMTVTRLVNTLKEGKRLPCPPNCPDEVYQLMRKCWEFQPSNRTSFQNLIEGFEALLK
UniProt P06239: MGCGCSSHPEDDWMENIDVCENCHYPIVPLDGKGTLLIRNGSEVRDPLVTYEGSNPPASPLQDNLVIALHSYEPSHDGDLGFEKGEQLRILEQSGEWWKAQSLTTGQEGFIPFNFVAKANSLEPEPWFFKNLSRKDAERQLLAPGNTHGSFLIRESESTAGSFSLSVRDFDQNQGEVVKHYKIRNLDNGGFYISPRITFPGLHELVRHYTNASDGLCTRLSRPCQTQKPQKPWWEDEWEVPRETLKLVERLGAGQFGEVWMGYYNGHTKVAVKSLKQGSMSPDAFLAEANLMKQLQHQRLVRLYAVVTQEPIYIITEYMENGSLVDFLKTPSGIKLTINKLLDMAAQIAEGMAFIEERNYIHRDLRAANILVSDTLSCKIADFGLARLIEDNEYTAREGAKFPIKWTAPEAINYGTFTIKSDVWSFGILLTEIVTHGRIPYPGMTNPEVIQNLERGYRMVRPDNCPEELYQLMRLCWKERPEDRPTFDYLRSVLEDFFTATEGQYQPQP
UniProt P53671: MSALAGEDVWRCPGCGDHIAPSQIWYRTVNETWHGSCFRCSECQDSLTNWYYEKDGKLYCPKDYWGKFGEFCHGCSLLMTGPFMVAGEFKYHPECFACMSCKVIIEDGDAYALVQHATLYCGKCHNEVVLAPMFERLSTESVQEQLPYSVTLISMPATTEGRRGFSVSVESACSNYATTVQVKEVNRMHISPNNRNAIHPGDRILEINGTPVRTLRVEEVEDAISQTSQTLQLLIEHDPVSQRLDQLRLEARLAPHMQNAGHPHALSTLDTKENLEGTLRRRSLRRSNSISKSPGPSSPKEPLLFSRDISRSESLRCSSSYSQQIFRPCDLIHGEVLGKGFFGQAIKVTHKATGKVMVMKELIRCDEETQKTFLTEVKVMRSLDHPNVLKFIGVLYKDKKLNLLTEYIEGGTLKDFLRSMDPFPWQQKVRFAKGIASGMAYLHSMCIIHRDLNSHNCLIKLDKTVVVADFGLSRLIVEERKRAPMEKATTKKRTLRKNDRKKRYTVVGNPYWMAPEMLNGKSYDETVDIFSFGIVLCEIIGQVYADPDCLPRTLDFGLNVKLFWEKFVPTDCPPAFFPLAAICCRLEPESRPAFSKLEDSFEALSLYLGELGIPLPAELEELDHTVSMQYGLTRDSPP
UniProt Q12851: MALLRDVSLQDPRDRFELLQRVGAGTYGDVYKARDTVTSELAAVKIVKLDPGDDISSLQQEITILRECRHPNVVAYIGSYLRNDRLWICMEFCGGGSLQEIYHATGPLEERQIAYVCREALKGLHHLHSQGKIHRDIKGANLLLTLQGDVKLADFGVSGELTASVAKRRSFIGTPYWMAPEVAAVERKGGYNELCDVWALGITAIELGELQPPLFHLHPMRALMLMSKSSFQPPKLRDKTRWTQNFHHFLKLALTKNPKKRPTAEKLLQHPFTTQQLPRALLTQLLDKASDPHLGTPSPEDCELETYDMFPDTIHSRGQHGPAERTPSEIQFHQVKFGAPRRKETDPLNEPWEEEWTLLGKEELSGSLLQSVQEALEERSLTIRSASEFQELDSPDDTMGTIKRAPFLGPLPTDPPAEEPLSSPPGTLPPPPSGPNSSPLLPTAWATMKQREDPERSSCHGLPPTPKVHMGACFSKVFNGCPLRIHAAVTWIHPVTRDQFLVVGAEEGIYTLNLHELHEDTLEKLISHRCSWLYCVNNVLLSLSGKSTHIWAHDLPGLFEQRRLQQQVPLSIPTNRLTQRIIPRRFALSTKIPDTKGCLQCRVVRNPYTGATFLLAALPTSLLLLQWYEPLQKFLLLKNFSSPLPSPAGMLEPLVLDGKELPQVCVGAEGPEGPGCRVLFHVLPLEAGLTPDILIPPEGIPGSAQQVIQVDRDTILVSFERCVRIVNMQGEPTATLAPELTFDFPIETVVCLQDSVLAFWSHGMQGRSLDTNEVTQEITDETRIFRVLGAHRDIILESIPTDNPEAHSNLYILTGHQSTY

Legend:
Experiment in all cases: kinase-Nluc reporter destabilization hit call (1 = scored as downregulated) (binary); higher = compound decreases kinase abundance
Details in all cases: K562; 2-18 h
ERN1 = ERN1 (UniProt O75460)
FGFR1 = FGFR1 (UniProt P11362)
FGFR2 = FGFR2 (UniProt P21802)
FGFR3 = FGFR3 (UniProt P22607)
FGR = FGR (UniProt P09769)
FLT3 = FLT3 (UniProt P36888)
FYN = FYN (UniProt P06241)
GSK3A = GSK3A (UniProt P49840)
HER2 = HER2 (UniProt P04626)
INSRR = INSRR (UniProt P14616)
IRAK3 = IRAK3 (UniProt Q9Y616)
JAK1 = JAK1 (UniProt P23458)
LCK = LCK (UniProt P06239)
LIMK1 = LIMK1 (UniProt P53667)
LIMK2 = LIMK2 (UniProt P53671)
LMTK2 = LMTK2 (UniProt Q8IWU2)
LYN = LYN (UniProt P07948)
MAP2K1 = MAP2K1 (UniProt Q02750)
MAP2K2 = MAP2K2 (UniProt P36507)
MAP4K2 = MAP4K2 (UniProt Q12851)

Measured: kinase-Nluc reporter destabilization hit call

N#Cc1cn([C@@H]2O[C@H](CO)[C@@H](O)[C@H]2O)c2nc[nH]c(=O)c12 [Jaspamycin] (10 µM)
inactive: ERN1 = 0 | FGFR1 = 0 | FGFR2 = 0 | FGFR3 = 0 | FGR 0 | FLT3 = 0 | FYN 0 | GSK3A 0 | HER2 = 0 | INSRR 0 | IRAK3 = 0 | JAK1 = 0 | LCK 0 | LIMK1 = 0 | LIMK2 = 0 | LMTK2 = 0 | LYN 0 | MAP2K1 = 0 | MAP2K2 = 0 | MAP4K2 = 0

NC(=O)c1ccc2nc(-c3ccc(C4(N)CCC4)cc3)c(-c3ccccc3)n2n1 (10 µM)
inactive: ERN1 = 0 | FGFR1 = 0 | FGFR2 = 0 | FGFR3 = 0 | FGR 0 | FLT3 = 0 | FYN 0 | GSK3A 0 | HER2 = 0 | INSRR 0 | IRAK3 = 0 | JAK1 = 0 | LCK 0 | LIMK1 = 0 | LIMK2 = 0 | LMTK2 = 0 | LYN 0 | MAP2K1 = 0 | MAP2K2 = 0 | MAP4K2 = 0

CN(C)CCCNc1ccn2ncc(-c3ccc4c(c3)OCO4)c2n1 (10 µM)
inactive: ERN1 = 0 | FGFR1 = 0 | FGFR2 = 0 | FGFR3 = 0 | FGR 0 | FLT3 = 0 | FYN 0 | GSK3A 0 | HER2 = 0 | INSRR 0 | IRAK3 = 0 | JAK1 = 0 | LCK 0 | LIMK1 = 0 | LIMK2 = 0 | LMTK2 = 0 | LYN 0 | MAP2K1 = 0 | MAP2K2 = 0 | MAP4K2 = 0

Cc1occ2c1C(=O)c1c(O)ccc(O)c1C2 (2.5 µM)
inactive: ERN1 = 0 | FGFR1 = 0 | FGFR2 = 0 | FGFR3 = 0 | FGR 0 | FLT3 = 0 | FYN 0 | GSK3A 0 | HER2 = 0 | INSRR 0 | IRAK3 = 0 | JAK1 = 0 | LCK 0 | LIMK1 = 0 | LIMK2 = 0 | LMTK2 = 0 | LYN 0 | MAP2K1 = 0 | MAP2K2 = 0 | MAP4K2 = 0

O=C(Nc1nccs1)C(c1cc(F)ccc1O)N1Cc2ccccc2C1=O (stereo not given) (10 µM)
inactive: ERN1 = 0 | FGFR1 = 0 | FGFR2 = 0 | FGFR3 = 0 | FGR 0 | FLT3 = 0 | FYN 0 | GSK3A 0 | HER2 = 0 | INSRR 0 | IRAK3 = 0 | JAK1 = 0 | LCK 0 | LIMK1 = 0 | LIMK2 = 0 | LMTK2 = 0 | LYN 0 | MAP2K1 = 0 | MAP2K2 = 0 | MAP4K2 = 0

Retrieved one by one from the list above (2):
NC(=O)c1ccc2nc(-c3ccc(C4(N)CCC4)cc3)c(-c3ccccc3)n2n1 (10 µM)
inactive: ERN1 = 0 | FGFR1 = 0 | FGFR2 = 0 | FGFR3 = 0 | FGR 0 | FLT3 = 0 | FYN 0 | GSK3A 0 | HER2 = 0 | INSRR 0 | IRAK3 = 0 | JAK1 = 0 | LCK 0 | LIMK1 = 0 | LIMK2 = 0 | LMTK2 = 0 | LYN 0 | MAP2K1 = 0 | MAP2K2 = 0 | MAP4K2 = 0

O=C(Nc1nccs1)C(c1cc(F)ccc1O)N1Cc2ccccc2C1=O (stereo not given) (10 µM)
inactive: ERN1 = 0 | FGFR1 = 0 | FGFR2 = 0 | FGFR3 = 0 | FGR 0 | FLT3 = 0 | FYN 0 | GSK3A 0 | HER2 = 0 | INSRR 0 | IRAK3 = 0 | JAK1 = 0 | LCK 0 | LIMK1 = 0 | LIMK2 = 0 | LMTK2 = 0 | LYN 0 | MAP2K1 = 0 | MAP2K2 = 0 | MAP4K2 = 0

Next part

COc1ccc2c(c1)C[C@H](C(=O)Nc1ccc(-c3cn[nH]c3)cc1OCCN(C)C)CO2 [Chroman 1] (10 µM)
inactive: ERN1 = 0 | FGFR1 = 0 | FGFR2 = 0 | FGFR3 = 0 | FGR 0 | FLT3 = 0 | FYN 0 | GSK3A 0 | HER2 = 0 | INSRR 0 | IRAK3 = 0 | JAK1 = 0 | LCK 0 | LIMK1 = 0 | LIMK2 = 0 | LMTK2 = 0 | LYN 0 | MAP2K1 = 0 | MAP2K2 = 0 | MAP4K2 = 0

C=CC(=O)Nc1cccc(Oc2nc(Nc3ccc(N4CCN(C)CC4)cc3)nc3ccsc23)c1 [Olmutinib] (2.5 µM)
inactive: ERN1 = 0 | FGFR1 = 0 | FGFR2 = 0 | FGFR3 = 0 | FGR 0 | FLT3 = 0 | FYN 0 | GSK3A 0 | HER2 = 0 | INSRR 0 | IRAK3 = 0 | JAK1 = 0 | LCK 0 | LIMK1 = 0 | LIMK2 = 0 | LMTK2 = 0 | LYN 0 | MAP2K1 = 0 | MAP2K2 = 0 | MAP4K2 = 0

CCn1c(-c2nonc2N)nc2c(C#CCO)ncc(OCCCN)c21 [AKT Kinase Inhibitor] (10 µM)
inactive: ERN1 = 0 | FGFR1 = 0 | FGFR2 = 0 | FGFR3 = 0 | FGR 0 | FLT3 = 0 | FYN 0 | GSK3A 0 | HER2 = 0 | INSRR 0 | IRAK3 = 0 | JAK1 = 0 | LCK 0 | LIMK1 = 0 | LIMK2 = 0 | LMTK2 = 0 | LYN 0 | MAP2K1 = 0 | MAP2K2 = 0 | MAP4K2 = 0

COC[C@H]1Cn2cc(-c3nc(Nc4ccnn4C)ncc3C)nc2C(=O)N1Cc1ccc(F)c(F)c1 (10 µM)
inactive: ERN1 = 0 | FGFR1 = 0 | FGFR2 = 0 | FGFR3 = 0 | FGR 0 | FLT3 = 0 | FYN 0 | GSK3A 0 | HER2 = 0 | INSRR 0 | IRAK3 = 0 | JAK1 = 0 | LCK 0 | LIMK1 = 0 | LIMK2 = 0 | LMTK2 = 0 | LYN 0 | MAP2K1 = 0 | MAP2K2 = 0 | MAP4K2 = 0

Cc1cc(/C=C2\CC/C(=C\c3cc(C)c(O)c(C)c3)C2=O)cc(C)c1O [Pentagamavunon-1] (2.5 µM)
inactive: ERN1 = 0 | FGFR1 = 0 | FGFR2 = 0 | FGFR3 = 0 | FGR 0 | FLT3 = 0 | FYN 0 | GSK3A 0 | HER2 = 0 | INSRR 0 | IRAK3 = 0 | JAK1 = 0 | LCK 0 | LIMK1 = 0 | LIMK2 = 0 | LMTK2 = 0 | LYN 0 | MAP2K1 = 0 | MAP2K2 = 0 | MAP4K2 = 0

Cc1cc(=O)[nH]c(=S)[nH]1 [Methylthiouracil] (10 µM)
inactive: ERN1 = 0 | FGFR1 = 0 | FGFR2 = 0 | FGFR3 = 0 | FGR 0 | FLT3 = 0 | FYN 0 | GSK3A 0 | HER2 = 0 | INSRR 0 | IRAK3 = 0 | JAK1 = 0 | LCK 0 | LIMK1 = 0 | LIMK2 = 0 | LMTK2 = 0 | LYN 0 | MAP2K1 = 0 | MAP2K2 = 0 | MAP4K2 = 0

COc1ncc2cc(C(=O)Nc3cc(C(=O)NCc4cccc(Cl)c4)ccc3Cl)c(=O)[nH]c2n1 (2.5 µM)
inactive: ERN1 = 0 | FGFR1 = 0 | FGFR2 = 0 | FGFR3 = 0 | FGR 0 | FLT3 = 0 | FYN 0 | GSK3A 0 | HER2 = 0 | INSRR 0 | IRAK3 = 0 | JAK1 = 0 | LCK 0 | LIMK1 = 0 | LIMK2 = 0 | LMTK2 = 0 | LYN 0 | MAP2K1 = 0 | MAP2K2 = 0 | MAP4K2 = 0

N#Cc1c[nH]c2ccc(-c3ccc(-c4c(O)cccc4O)cc3)cc12 (10 µM)
inactive: ERN1 = 0 | FGFR1 = 0 | FGFR2 = 0 | FGFR3 = 0 | FGR 0 | FLT3 = 0 | FYN 0 | GSK3A 0 | HER2 = 0 | INSRR 0 | IRAK3 = 0 | JAK1 = 0 | LCK 0 | LIMK1 = 0 | LIMK2 = 0 | LMTK2 = 0 | LYN 0 | MAP2K1 = 0 | MAP2K2 = 0 | MAP4K2 = 0

COc1cc(-c2cc(-c3cccc(O)c3)cnc2N)cc(OC)c1OC (2.5 µM)
inactive: ERN1 = 0 | FGFR1 = 0 | FGFR2 = 0 | FGFR3 = 0 | FGR 0 | FLT3 = 0 | FYN 0 | GSK3A 0 | HER2 = 0 | INSRR 0 | IRAK3 = 0 | JAK1 = 0 | LCK 0 | LIMK1 = 0 | LIMK2 = 0 | LMTK2 = 0 | LYN 0 | MAP2K1 = 0 | MAP2K2 = 0 | MAP4K2 = 0

COc1cccc(Nc2ncnn3ccc(CN4CC[C@@H](N)[C@H](O)C4)c23)c1 (2.5 µM)
inactive: ERN1 = 0 | FGFR1 = 0 | FGFR2 = 0 | FGFR3 = 0 | FGR 0 | FLT3 = 0 | FYN 0 | GSK3A 0 | HER2 = 0 | INSRR 0 | IRAK3 = 0 | JAK1 = 0 | LCK 0 | LIMK1 = 0 | LIMK2 = 0 | LMTK2 = 0 | LYN 0 | MAP2K1 = 0 | MAP2K2 = 0 | MAP4K2 = 0

Cc1ccc(-n2c(-c3ccc(O)cc3O)n[nH]c2=O)cc1 (10 µM)
active: FYN 1 | HER2 = 1 | INSRR 1 | JAK1 = 1
inactive: ERN1 = 0 | FGFR1 = 0 | FGFR2 = 0 | FGFR3 = 0 | FGR 0 | FLT3 = 0 | GSK3A 0 | IRAK3 = 0 | LCK 0 | LIMK1 = 0 | LIMK2 = 0 | LMTK2 = 0 | LYN 0 | MAP2K1 = 0 | MAP2K2 = 0 | MAP4K2 = 0

COc1cc(Nc2nc3ccccc3nc2NS(=O)(=O)c2ccc(NC(=O)c3ccc(C)c(OC)c3)cc2)cc(OC)c1 (10 µM)
inactive: ERN1 = 0 | FGFR1 = 0 | FGFR2 = 0 | FGFR3 = 0 | FGR 0 | FLT3 = 0 | FYN 0 | GSK3A 0 | HER2 = 0 | INSRR 0 | IRAK3 = 0 | JAK1 = 0 | LCK 0 | LIMK1 = 0 | LIMK2 = 0 | LMTK2 = 0 | LYN 0 | MAP2K1 = 0 | MAP2K2 = 0 | MAP4K2 = 0

CCOC(=O)C1=C[C@]2(CC)CCCN3CCc4c(n1c1ccccc41)[C@@H]32 [Vinpocetine] (10 µM)
inactive: ERN1 = 0 | FGFR1 = 0 | FGFR2 = 0 | FGFR3 = 0 | FGR 0 | FLT3 = 0 | FYN 0 | GSK3A 0 | HER2 = 0 | INSRR 0 | IRAK3 = 0 | JAK1 = 0 | LCK 0 | LIMK1 = 0 | LIMK2 = 0 | LMTK2 = 0 | LYN 0 | MAP2K1 = 0 | MAP2K2 = 0 | MAP4K2 = 0
